From the supplement of paper PMC11006884 come the findings set out here.

Amino acid sequences for entries named in this document (tags omitted). A change or cut given only in a name is not applied to a line headed by its entry.
UniProt P07814: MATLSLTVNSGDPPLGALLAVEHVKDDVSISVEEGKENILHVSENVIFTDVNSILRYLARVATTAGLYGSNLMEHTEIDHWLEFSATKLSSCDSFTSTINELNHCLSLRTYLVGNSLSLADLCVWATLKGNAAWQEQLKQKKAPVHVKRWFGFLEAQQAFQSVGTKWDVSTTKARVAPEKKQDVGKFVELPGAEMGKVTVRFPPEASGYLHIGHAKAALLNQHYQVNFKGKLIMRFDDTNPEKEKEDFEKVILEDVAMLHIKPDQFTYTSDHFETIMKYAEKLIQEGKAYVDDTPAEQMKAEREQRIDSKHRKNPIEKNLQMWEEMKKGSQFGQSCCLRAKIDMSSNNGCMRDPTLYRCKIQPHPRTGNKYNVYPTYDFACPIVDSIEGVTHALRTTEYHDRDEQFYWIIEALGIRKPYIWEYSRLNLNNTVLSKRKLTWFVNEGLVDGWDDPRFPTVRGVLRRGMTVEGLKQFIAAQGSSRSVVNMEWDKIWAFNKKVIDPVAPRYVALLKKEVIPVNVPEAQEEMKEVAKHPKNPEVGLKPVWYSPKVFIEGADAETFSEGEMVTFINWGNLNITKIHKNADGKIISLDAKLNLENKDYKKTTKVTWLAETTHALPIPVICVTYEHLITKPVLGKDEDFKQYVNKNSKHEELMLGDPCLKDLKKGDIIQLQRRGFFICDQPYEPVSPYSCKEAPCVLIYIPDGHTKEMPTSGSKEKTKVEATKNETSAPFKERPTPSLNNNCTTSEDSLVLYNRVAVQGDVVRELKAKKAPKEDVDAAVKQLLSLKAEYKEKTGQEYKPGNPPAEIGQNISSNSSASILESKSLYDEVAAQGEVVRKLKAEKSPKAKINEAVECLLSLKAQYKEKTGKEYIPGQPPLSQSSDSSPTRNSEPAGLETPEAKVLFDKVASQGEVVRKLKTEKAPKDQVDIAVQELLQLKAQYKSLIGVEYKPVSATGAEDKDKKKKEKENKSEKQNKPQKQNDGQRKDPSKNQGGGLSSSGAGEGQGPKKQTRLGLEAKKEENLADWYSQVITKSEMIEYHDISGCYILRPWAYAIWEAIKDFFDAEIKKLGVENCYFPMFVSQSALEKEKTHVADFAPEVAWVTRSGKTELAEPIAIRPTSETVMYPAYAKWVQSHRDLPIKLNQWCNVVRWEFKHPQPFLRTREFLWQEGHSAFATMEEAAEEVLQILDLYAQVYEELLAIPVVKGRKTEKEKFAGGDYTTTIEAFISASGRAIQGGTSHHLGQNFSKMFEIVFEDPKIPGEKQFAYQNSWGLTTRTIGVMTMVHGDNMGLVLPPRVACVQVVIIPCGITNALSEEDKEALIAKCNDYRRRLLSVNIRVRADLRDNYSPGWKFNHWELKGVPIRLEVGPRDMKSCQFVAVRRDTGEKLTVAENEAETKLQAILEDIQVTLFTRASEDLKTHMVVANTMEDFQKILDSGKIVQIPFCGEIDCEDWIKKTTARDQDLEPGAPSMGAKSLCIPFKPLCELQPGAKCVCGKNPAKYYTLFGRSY
UniProt P06730, whole entry: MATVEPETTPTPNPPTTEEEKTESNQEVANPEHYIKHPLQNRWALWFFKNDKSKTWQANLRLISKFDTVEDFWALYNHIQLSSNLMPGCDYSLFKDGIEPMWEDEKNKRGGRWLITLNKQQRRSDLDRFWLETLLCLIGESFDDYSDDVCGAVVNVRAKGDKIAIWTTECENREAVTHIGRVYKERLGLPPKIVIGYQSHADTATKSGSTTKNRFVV
UniProt O94906: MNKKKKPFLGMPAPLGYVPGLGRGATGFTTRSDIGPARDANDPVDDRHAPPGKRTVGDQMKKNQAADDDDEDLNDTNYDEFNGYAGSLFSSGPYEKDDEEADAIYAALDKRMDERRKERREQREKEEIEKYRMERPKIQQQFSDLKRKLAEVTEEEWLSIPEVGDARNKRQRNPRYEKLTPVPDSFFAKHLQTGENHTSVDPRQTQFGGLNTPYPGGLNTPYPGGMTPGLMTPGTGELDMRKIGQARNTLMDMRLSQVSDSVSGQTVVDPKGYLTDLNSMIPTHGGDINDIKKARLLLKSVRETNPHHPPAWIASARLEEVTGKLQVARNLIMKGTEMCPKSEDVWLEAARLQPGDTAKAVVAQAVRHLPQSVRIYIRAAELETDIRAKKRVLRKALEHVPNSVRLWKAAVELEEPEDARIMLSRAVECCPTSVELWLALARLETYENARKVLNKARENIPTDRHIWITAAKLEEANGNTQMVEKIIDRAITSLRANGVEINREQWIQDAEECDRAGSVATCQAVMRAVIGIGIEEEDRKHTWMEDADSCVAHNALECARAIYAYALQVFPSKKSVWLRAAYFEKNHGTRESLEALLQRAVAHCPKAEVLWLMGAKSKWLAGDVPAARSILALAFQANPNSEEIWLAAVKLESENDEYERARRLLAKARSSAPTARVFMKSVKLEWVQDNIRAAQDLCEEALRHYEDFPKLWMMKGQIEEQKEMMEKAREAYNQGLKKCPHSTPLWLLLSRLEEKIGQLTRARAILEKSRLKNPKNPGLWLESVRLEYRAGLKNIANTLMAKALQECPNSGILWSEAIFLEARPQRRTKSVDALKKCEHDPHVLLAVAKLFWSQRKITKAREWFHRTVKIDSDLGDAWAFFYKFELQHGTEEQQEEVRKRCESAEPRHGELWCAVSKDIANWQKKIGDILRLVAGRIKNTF
UniProt O95239: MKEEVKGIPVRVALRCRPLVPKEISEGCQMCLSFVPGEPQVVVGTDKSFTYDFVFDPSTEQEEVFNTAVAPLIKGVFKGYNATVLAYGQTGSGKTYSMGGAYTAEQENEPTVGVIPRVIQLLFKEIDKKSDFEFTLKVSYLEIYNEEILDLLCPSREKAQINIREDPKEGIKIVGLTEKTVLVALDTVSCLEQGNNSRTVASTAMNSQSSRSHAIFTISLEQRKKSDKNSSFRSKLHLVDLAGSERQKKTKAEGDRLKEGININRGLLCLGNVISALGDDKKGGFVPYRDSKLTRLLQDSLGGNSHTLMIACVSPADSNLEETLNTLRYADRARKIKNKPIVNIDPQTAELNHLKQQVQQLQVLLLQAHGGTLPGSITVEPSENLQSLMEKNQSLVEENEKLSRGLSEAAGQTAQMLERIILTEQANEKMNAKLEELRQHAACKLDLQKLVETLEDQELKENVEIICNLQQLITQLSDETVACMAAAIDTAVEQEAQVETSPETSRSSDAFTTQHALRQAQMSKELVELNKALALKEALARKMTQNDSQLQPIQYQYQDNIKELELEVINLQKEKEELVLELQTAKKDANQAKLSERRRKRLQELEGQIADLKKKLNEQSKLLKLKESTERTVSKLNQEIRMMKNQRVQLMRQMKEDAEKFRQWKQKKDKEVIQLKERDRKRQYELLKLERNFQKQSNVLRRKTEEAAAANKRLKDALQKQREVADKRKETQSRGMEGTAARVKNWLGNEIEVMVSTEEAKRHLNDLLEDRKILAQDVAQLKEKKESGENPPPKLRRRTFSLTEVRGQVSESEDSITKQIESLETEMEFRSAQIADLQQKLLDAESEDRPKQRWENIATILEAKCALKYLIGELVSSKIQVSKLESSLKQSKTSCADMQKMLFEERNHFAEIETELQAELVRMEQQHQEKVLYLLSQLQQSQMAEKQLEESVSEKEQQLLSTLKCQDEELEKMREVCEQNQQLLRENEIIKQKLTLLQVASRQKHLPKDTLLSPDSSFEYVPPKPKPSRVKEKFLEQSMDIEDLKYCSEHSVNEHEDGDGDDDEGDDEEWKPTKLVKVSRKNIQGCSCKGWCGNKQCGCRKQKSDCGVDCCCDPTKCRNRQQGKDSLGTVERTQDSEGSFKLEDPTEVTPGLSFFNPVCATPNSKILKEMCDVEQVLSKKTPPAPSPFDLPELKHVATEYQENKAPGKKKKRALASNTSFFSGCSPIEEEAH
UniProt O94822: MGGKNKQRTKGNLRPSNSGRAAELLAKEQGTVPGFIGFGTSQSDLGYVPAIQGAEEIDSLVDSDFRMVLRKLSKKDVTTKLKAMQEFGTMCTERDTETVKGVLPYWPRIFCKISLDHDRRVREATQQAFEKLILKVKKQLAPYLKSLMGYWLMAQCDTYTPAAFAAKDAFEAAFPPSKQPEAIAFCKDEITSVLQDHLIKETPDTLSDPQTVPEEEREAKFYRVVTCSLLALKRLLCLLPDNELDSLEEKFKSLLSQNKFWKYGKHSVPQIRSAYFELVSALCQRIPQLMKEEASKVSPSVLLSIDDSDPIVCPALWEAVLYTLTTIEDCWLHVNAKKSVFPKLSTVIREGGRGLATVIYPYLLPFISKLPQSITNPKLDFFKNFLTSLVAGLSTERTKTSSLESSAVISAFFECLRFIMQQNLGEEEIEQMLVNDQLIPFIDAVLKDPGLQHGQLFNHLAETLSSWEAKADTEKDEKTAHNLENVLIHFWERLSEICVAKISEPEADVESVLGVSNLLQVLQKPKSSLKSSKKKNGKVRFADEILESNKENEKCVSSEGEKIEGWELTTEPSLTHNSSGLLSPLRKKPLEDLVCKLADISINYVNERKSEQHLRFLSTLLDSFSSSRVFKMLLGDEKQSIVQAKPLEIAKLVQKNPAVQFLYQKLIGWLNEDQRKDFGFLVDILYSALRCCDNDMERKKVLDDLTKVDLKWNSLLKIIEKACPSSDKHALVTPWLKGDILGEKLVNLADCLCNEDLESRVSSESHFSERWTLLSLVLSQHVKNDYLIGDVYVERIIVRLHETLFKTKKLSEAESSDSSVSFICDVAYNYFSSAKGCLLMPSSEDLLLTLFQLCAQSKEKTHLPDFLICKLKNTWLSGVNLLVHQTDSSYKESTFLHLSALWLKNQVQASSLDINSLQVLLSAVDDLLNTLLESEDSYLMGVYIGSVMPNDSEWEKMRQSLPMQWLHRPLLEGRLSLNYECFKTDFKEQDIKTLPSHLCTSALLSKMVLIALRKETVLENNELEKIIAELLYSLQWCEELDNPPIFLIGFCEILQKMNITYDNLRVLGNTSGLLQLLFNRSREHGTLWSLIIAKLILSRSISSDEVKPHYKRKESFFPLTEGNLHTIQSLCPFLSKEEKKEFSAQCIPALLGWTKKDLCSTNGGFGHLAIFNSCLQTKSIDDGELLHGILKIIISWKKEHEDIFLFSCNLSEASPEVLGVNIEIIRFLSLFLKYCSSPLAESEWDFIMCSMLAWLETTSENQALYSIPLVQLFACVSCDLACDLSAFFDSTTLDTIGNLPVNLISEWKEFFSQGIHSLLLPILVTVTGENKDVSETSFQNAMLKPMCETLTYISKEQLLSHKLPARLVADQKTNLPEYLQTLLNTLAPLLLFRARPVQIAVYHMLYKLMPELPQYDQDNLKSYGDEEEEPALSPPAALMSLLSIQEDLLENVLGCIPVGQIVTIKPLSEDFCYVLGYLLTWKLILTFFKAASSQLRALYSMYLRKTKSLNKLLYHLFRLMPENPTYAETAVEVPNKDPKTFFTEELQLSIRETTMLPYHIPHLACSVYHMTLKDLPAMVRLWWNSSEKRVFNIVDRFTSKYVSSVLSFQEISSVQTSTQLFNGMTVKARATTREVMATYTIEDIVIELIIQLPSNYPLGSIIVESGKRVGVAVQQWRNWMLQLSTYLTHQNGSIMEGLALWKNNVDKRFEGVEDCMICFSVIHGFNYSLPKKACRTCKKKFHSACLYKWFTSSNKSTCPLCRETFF
UniProt O95757: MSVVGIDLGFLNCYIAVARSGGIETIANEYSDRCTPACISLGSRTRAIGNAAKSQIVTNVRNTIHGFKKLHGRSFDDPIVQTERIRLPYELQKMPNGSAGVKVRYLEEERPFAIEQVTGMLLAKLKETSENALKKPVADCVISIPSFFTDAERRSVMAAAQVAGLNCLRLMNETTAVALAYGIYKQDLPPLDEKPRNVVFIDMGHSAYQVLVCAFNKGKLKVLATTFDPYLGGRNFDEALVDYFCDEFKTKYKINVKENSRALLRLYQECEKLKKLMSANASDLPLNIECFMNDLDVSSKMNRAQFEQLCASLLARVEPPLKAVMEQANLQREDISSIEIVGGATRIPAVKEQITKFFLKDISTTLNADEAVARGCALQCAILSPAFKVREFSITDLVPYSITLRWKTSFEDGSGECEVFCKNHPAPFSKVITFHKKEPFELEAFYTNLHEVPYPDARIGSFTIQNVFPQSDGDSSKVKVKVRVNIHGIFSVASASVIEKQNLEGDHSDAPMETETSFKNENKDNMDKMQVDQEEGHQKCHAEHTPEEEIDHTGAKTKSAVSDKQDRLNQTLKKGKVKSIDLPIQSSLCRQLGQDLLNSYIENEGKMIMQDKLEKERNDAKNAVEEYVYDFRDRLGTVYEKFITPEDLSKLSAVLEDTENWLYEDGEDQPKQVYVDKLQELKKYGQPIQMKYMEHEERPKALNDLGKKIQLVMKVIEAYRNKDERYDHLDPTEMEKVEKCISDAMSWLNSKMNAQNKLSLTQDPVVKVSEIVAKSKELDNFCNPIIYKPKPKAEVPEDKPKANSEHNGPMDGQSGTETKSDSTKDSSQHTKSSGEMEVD

This is a selection; strong and weak results do not stand in their true shares.

Compound in this assay: COC(=O)C#Cc1ccccc1 [methyl 3-phenylpropiolate]
As to the kind of experiment: log2 ratio of iodoacetamide-alkyne labeling of the cysteine site, DMSO over compound (competition); higher = stronger covalent engagement of the cysteine by the compound, active = 1 or more. To be noted: 500 µM; treatment time 1 h; system: HEK293T cell lysate. Summed up: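 HEK293T lysate (2 mg/mL) was incubated with electrophile (500 µM) or vehicle for 1 h at ambient temperature and then with iodoacetamide alkyne for 1 h. Labelled proteins were clicked to sCIP-TMT reagents, pooled, digested, enriched on streptavidin and measured by Orbitrap Eclipse LC-MS/MS with FAIMS, with FragPipe quantification. The per-cysteine log2 competition ratio is mean control-channel reporter intensity over mean compound-channel reporter intensity. Across three replicates with duplicate channels, cysteines quantified in only one replicate were excluded.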
With AHSG C132 (UniProt P02765), the “log2 ratio of iodoacetamide-alkyne labeling” value (shortened to “log2 ratio”) was inactive: 0.897.
For the target GLS C525 (UniProt O94925), the “log2 ratio” value was inactive: 0.324.
Turning to HEXIM1 C79 (UniProt O94992), the “log2 ratio” value is active: 1.3.
Regarding PSMG1 C14 (UniProt O95456), the “log2 ratio” value is inactive: 0.373.
For EPRS C359 (UniProt P07814), the “log2 ratio” value was inactive: 0.19.
In the case of ECD C557 (UniProt O95905), the “log2 ratio” value is inactive: 0.573.
As to PCNT C2185 (UniProt O95613), the “log2 ratio” value was inactive: 0.362.
EIF4E C170 (UniProt P06730): the “log2 ratio” value was inactive: 0.211.
For the target POLR1A C582 (UniProt O95602), the “log2 ratio” value is inactive: -0.00115.
For the target KIF20A C43 (UniProt O95235), the “log2 ratio” value was inactive: 0.125.
For IPO7 C757 (UniProt O95373), the “log2 ratio” value is inactive: 0.0484.
For ZWINT C54 (UniProt O95229), the “log2 ratio” value is inactive: 0.427.
As for PRPF6 C837 (UniProt O94906), the “log2 ratio” value was inactive: -0.091.
For the target MFN2 C348 (UniProt O95140), the “log2 ratio” value was inactive: -0.0549.
The figure for SEC24B C562 (UniProt O95487) is inactive: 0.735.
The figure for UniProt P07437_C129 is inactive: 0.192.
The figure for ACSL3 C429 (UniProt O95573) is inactive: 0.052.
Turning to MFN2 C482 (UniProt O95140), the “log2 ratio” value is inactive: 0.471.
As for AP2A1 C492 (UniProt O95782), the figure is inactive: 0.467; as for KIF4A C1171 (UniProt O95239), inactive: 0.491; as for UniProt O94822_C498, inactive: 0.086.
As for ENO1 C119 (UniProt P06733), the “log2 ratio” value was inactive: -0.134.
With UniProt O94763_C443, the “log2 ratio” value was inactive: 0.659.
Take EPRS C1377 (UniProt P07814): the “log2 ratio” value is inactive: 0.157.
In the case of PRPF6 C429 (UniProt O94906), the “log2 ratio” value was inactive: 0.551.
Regarding UniProt O94826_C475, the “log2 ratio” value is inactive: 0.22.
As for POLR1A C446 (UniProt O95602), the “log2 ratio” value is inactive: 0.0221.
Regarding HSPA4L C167 (UniProt O95757), the “log2 ratio” value is inactive: -0.00119.
Take SLU7 C469 (UniProt O95391): the “log2 ratio” value was inactive: 0.505.
EPRS C381 (UniProt P07814): the “log2 ratio” value is inactive: 0.268.
Regarding UniProt O96028_C1315, the “log2 ratio” value is inactive: 0.0805.
As for OAT C150 (UniProt P04181), the figure is inactive: 0.262.
As for PFN1 C128 (UniProt P07737), the figure is inactive: -0.0166.
Regarding MTA2 C495 (UniProt O94776), the “log2 ratio” value was inactive: -0.0134.
In the case of PGLS C156 (UniProt O95336), the “log2 ratio” value is inactive: 0.732.
For the target ZRANB2 C74 (UniProt O95218), the “log2 ratio” value is inactive: 0.267.
As to EPRS C1453 (UniProt P07814), the “log2 ratio” value is inactive: -0.00903.
The figure for CA2 C205 (UniProt P00918) is inactive: -0.11.
